Reference: publication doi:10.1101/477745
No constants are given. Whether binding was seen depends on the method and setting. For part of these data: In cells and extracts the contact can be indirect. Some binding calls cover weakened binding; strength is not graded here. For part of these data: Where a sequence is shown, tags or fusion partners need not be part of it.

T1: Era fused to SB (small bit of luciferase) (S. aureus) (UniProt Q2FGF6)
T1 sequence: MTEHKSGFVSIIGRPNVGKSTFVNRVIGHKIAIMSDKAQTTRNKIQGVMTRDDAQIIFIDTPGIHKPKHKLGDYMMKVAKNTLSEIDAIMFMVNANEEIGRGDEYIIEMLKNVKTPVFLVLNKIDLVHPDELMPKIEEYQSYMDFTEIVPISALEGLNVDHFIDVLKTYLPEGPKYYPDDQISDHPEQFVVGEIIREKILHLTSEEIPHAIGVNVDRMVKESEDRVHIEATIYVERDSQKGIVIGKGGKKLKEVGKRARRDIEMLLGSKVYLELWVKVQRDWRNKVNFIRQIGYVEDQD

T2: Era-T25 (S. aureus) (UniProt Q2FGF6)
T2 sequence: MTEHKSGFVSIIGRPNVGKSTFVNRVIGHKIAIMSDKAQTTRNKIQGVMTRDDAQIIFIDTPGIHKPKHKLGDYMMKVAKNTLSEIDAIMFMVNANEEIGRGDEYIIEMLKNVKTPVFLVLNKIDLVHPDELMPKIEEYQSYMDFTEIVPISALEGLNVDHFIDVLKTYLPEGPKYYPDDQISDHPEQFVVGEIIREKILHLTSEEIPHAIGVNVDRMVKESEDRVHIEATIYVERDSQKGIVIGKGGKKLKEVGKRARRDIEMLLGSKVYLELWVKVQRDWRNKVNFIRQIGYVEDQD


Tests used:
[1] = target: T1, Era fused to SB (small bit of luciferase) (S. aureus); assay: split reporter
Era-T25 (S. aureus) = target: T2, Era-T25 (S. aureus); assay: two-hybrid

| Binder | binding [1] | binding (Era-T25 (S. aureus)) |
| --- | --- | --- |
| CshA core helicase domain (aa 1-382) fused to LB (domain or fragment, UniProt Q2FF45 1-382) MQNFKELGISDNTVQSLESMGFKEPTPIQKDSIPYALQGIDILGQAQTGTGKTGAFGIPLIEKVVGKQGVQSLILAPTRELAMQVAEQLREFSRGQGVQVVTVFGGMPIERQIKALKKGPQIVVGTPGRVIDHLNRRTLKTDGIHTLILDEADEMMNMGFIDDMRFIMDKIPAVQRQTMLFSATMPKAIQALVQQFMKSPKIIKTMNNEMSDPQIEEFYTIVKELEKFDTFTNFLDVHQPELAIVFGRTKRRVDELTSALISKGYKAEGLHGDITQAKRLEVLKKFKNDQINILVATDVAARGLDISGVSHVYNFDIPQDTESYTHRIGRTGRAGKEGIAVTFVNPIEMDYIRQIEDANGRKMSALRPPHRKEVLQAREDDI | binds |  |
| CshA RecA2 (aa 222-382) fused to LB (domain or fragment, UniProt Q2FF45 222-382) VKELEKFDTFTNFLDVHQPELAIVFGRTKRRVDELTSALISKGYKAEGLHGDITQAKRLEVLKKFKNDQINILVATDVAARGLDISGVSHVYNFDIPQDTESYTHRIGRTGRAGKEGIAVTFVNPIEMDYIRQIEDANGRKMSALRPPHRKEVLQAREDDI | no binding |  |
| CshA disordered CT-region (aa 383-506) fused to LB (domain or fragment, UniProt Q2FF45 383-506) KEKVENWMSKESESRLKRISTELLNEYNDVDLVAALLQELVEANDEVEVQLTFEKPLSRKGRNGKPSGSRNRNSKRGNPKFDSKSKRSKGYSSKKKSTKKFDRKEKSSGGSRPMKGRTFADHQK | no binding |  |
| CshA RecA1 (aa 1-221) fused to LB (domain or fragment, UniProt Q2FF45 1-221) MQNFKELGISDNTVQSLESMGFKEPTPIQKDSIPYALQGIDILGQAQTGTGKTGAFGIPLIEKVVGKQGVQSLILAPTRELAMQVAEQLREFSRGQGVQVVTVFGGMPIERQIKALKKGPQIVVGTPGRVIDHLNRRTLKTDGIHTLILDEADEMMNMGFIDDMRFIMDKIPAVQRQTMLFSATMPKAIQALVQQFMKSPKIIKTMNNEMSDPQIEEFYTI | no binding |  |

Continued, values first:

| binding [1] | binding (Era-T25 (S. aureus)) | Binder |
| --- | --- | --- |
| binds |  | Era fused to SB (small bit of luciferase) (protein, UniProt Q2FGF6 1-299) MTEHKSGFVSIIGRPNVGKSTFVNRVIGHKIAIMSDKAQTTRNKIQGVMTRDDAQIIFIDTPGIHKPKHKLGDYMMKVAKNTLSEIDAIMFMVNANEEIGRGDEYIIEMLKNVKTPVFLVLNKIDLVHPDELMPKIEEYQSYMDFTEIVPISALEGLNVDHFIDVLKTYLPEGPKYYPDDQISDHPEQFVVGEIIREKILHLTSEEIPHAIGVNVDRMVKESEDRVHIEATIYVERDSQKGIVIGKGGKKLKEVGKRARRDIEMLLGSKVYLELWVKVQRDWRNKVNFIRQIGYVEDQD |
|  | binds | Era-T25 (protein, UniProt Q2FGF6 1-299) MTEHKSGFVSIIGRPNVGKSTFVNRVIGHKIAIMSDKAQTTRNKIQGVMTRDDAQIIFIDTPGIHKPKHKLGDYMMKVAKNTLSEIDAIMFMVNANEEIGRGDEYIIEMLKNVKTPVFLVLNKIDLVHPDELMPKIEEYQSYMDFTEIVPISALEGLNVDHFIDVLKTYLPEGPKYYPDDQISDHPEQFVVGEIIREKILHLTSEEIPHAIGVNVDRMVKESEDRVHIEATIYVERDSQKGIVIGKGGKKLKEVGKRARRDIEMLLGSKVYLELWVKVQRDWRNKVNFIRQIGYVEDQD |
